From paper PMC1855991
Results are given in words; binding and its absence hold for the method and conditions named. Binding seen in cells or lysates may run through a third protein. Some entries that bind do so weakly or less than the wild type. Where a sequence is shown, tags or fusion partners need not be part of it.

What was measured:
[1] = molecular target: T1, Lsk1-HA (S. pombe) (UniProt O14098); experiment: co-IP; S. pombe cells grown to mid-log phase and lysed under native conditions; anti-HA (12CA5) immunoprecipitation, SDS-PAGE, immunoblot with anti-myc (9E10)
T1 sequence: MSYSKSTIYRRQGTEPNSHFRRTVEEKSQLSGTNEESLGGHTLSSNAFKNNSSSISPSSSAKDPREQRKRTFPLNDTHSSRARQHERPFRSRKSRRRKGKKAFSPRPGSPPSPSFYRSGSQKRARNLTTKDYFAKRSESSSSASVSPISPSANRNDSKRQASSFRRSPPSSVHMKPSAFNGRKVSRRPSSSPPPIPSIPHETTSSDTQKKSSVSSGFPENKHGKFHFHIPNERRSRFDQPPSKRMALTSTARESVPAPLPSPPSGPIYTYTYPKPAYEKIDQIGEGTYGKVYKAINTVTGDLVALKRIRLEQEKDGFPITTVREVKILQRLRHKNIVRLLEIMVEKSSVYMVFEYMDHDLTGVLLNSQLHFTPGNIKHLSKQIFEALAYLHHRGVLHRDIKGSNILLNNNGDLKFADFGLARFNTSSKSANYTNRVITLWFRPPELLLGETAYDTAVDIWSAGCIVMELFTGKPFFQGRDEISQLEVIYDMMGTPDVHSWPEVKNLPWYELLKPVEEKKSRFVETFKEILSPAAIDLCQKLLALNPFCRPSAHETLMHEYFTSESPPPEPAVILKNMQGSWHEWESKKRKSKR

[2] = molecular target: T2, Lsk1-K306R-HA (S. pombe) (UniProt O14098); experiment: as above
T2 sequence: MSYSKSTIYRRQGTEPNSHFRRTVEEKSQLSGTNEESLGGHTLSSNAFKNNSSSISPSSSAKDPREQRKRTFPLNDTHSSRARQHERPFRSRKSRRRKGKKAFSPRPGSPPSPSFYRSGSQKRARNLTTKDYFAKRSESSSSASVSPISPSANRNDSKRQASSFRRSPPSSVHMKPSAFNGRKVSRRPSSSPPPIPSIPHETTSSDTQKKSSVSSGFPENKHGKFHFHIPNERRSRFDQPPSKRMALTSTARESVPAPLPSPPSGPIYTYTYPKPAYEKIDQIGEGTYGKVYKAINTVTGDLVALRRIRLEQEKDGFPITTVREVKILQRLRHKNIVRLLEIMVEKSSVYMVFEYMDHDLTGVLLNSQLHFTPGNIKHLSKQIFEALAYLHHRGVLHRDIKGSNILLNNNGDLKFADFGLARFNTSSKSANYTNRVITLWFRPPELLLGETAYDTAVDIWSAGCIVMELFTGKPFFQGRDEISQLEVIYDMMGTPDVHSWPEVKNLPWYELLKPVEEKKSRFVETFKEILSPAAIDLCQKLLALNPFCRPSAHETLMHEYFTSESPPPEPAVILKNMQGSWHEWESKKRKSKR

binding [1]: binds
binding [2]: no binding
B1: Lsc1-myc (protein, UniProt O59748 1-331)
chain: MAENENHVLSIRMSHPYYSEKEISRILSTRDPKENNLRMQAFAWISTLSKTLKFPVRTSGLAMLLYSRFQLFFPVNEIPLLECATACLVVASKIEDTAKKFRDILLAHYLQKHPGSEVDAHSQLIEENKKRILGLERMTLELICFDFRVRHPHNYMVKFAKSLKFSSSTASIAWNVCTDAYKTYTMLKYPAHIVAVASISIACKLQQLPQPIIPRSFFAPPALTEAVIADILDLYMHYQPHTCIGNMYTTEKLLGLCVDFQRAQKNSGRPQKPPQIDPHSSSLADEYRESNKRLQESKESCARFILDCDRKYFNTEFEKRMLEERRNKGTV
